This note sets out measurements from patent US20220409560A1, “Pharmaceutical Compositions, Formulations And Methods For The Treatment Of Retinoblastoma” (Oxular Limited, priority 2019, published 2022).

SMILES strings stand for the structures.

Experiment [1] deals with Y79 cell line. Nature of the experiment: Retinoblastoma cell proliferation inhibition assay (Cell Titer Glo, 72 hour incubation). The format is cell-based. The following applies: Homo sapiens. On the technique in general: In ATP-based viability assays light output follows the ATP content of the culture.
For experiment [2], the system named is WERI cell line (WERI-Rb1). The description is as above. In kind it is cell-based. To be noted: Homo sapiens.

For the compound `O=C(CCCCCCC(=O)Nc1ccccc1)NO` [Vorinostat], the EC50 (in general, the concentration giving half of the maximal effect) in experiment [1] amounted to 2840 nM; in experiment [2], 1370 nM.
